Where two headings read alike, the source gives them in different places. These are yes or no findings as the source states them, for the method shown. Some binding calls cover weakened binding; strength is not graded here.
B1: N-terminal Bdp1 variant that encompasses residues 130-484 (domain or fragment, UniProt A6H8Y1 130-484)
chain: ATSTKEKQPCSDRYRIYKAQKLREMLKEELRKEKKQWKNKYAINESQRPPDRSKMTMRDFIYYLPDNNPMTSSLEQEKKTEKPSTPVQTREQEGKSTPNAEDNEMEEETDDGPLLVPRVKVAEDGSIILDEESLTVEVLRTKGPCVVEENDPIFERGSTTTYSSFRKNYYSKPWSNKETDMFFLAISMVGTDFSMIGQLFPHRARIEIKNKFKREEKTNGWRIDKAFQEKRPFDFDFFAHLLQKVLAEEEKRKQKSVKNHSLKEKKSTKPRKNVKVKKVACEGVNNDPDESMSSRISDTERSQKDAQTVEEESLTLSREDAEQVALEVDLNQKKRRRKKQDGANELGVNNLLENA

Sequences of proteins named here, by UniProt entry; tags and fusion partners are left off.
UniProt P20226: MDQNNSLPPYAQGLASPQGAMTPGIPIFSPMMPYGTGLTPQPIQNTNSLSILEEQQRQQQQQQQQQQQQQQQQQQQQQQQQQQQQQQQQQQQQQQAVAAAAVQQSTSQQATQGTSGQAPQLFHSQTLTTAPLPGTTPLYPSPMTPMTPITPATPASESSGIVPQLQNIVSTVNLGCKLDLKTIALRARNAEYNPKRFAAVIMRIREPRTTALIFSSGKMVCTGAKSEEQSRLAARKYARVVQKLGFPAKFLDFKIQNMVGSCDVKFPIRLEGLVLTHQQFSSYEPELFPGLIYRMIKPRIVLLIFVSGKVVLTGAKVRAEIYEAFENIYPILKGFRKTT
UniProt Q00403: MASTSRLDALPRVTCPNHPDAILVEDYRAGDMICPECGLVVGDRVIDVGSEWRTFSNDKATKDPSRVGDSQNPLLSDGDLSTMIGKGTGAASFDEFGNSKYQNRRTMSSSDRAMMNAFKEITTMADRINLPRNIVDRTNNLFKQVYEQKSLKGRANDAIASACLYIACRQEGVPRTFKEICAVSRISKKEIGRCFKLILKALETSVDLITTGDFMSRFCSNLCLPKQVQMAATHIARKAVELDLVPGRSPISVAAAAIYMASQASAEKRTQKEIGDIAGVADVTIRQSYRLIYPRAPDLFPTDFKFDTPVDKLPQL

What was measured:
[1] = molecular target: TATA-binding protein (human) (UniProt P20226); experiment: single-molecule FRET of TBP-induced bending of promoter DNA
[2] = molecular target: TATA-binding protein (human) (UniProt P20226); experiment: as above; remark: listed apart in the source

Row | Molecule | binding [1] | binding [2]
1 | transcription factor (TF) IIB (from UniProt Q00403 1-316) | binds | 
2 | B1 |  | binds
